Data as given in PubChem BioAssay AID1224830 (NIAID, 2016)
The whole screen tested about 18,000 reagents; this is a random part of them. About 2,900 of them (16%) count as active. 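Calls are made per well; low scores hint the gene aids the LPS response, high scores that it dampens it.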 A number with no mark means an inactive call. Repeated entries: four replicate wells of each siRNA pool. No sequences are given here.

- Purpose: 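Genes whose knock-down alters the TNF-alpha reporter response to LPS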 (primary screen)
- System: human THP-1 monocytic leukaemia cells, TNF dual-luciferase reporter clone, PMA-differentiated to macrophage-like cells
- Reagents: siRNA pool against human genes, 50 nM
- Duration: LPS for 4 h, given about 3 days after siRNA transfection
- Conditions: bacterial LPS (TLR4 ligand), 10 ng/ml
- Detection: 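Ratio of firefly to renilla light, scaled to the plate median and expressed as a robust z-score per replicate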
- Reading the numbers: TNF reporter robust z-score: higher = stronger TNF reporter response to LPS
- Rule for the call: 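Each well counts as active if its z-score is over 2.8 or under -1.5; controls are left without a call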

no.	Target gene	TNF reporter robust z-score
1	TRIM36 (tripartite motif containing 36)	-0.13
2	TRIM36 (tripartite motif containing 36)	-0.6
3	TRIM36 (tripartite motif containing 36)	1.04
4	TRIM36 (tripartite motif containing 36)	2.23
5	LRRC37A (leucine rich repeat containing 37A)	0.07
6	LRRC37A (leucine rich repeat containing 37A)	0.92
7	LRRC37A (leucine rich repeat containing 37A)	-0.06
8	LRRC37A (leucine rich repeat containing 37A)	2.17
9	IQCF3 (IQ motif containing F3)	-1.09
10	IQCF3 (IQ motif containing F3)	-1.45
11	IQCF3 (IQ motif containing F3)	-2.03 (active)
12	IQCF3 (IQ motif containing F3)	-1.36
13	GPAT4 (glycerol-3-phosphate acyltransferase 4)	1.31
14	GPAT4 (glycerol-3-phosphate acyltransferase 4)	-0.02
15	GPAT4 (glycerol-3-phosphate acyltransferase 4)	0.23
16	GPAT4 (glycerol-3-phosphate acyltransferase 4)	-0.37
17	NDP (norrin cystine knot growth factor NDP)	1.6
18	NDP (norrin cystine knot growth factor NDP)	1.75
19	NDP (norrin cystine knot growth factor NDP)	1.41
20	NDP (norrin cystine knot growth factor NDP)	1.92
21	ASS1 (argininosuccinate synthase 1)	1.42
22	ASS1 (argininosuccinate synthase 1)	1.31
23	ASS1 (argininosuccinate synthase 1)	0.73
24	ASS1 (argininosuccinate synthase 1)	1.35
25	GLRX5 (glutaredoxin 5)	-0.91
26	GLRX5 (glutaredoxin 5)	-0.78
27	GLRX5 (glutaredoxin 5)	-0.4
28	GLRX5 (glutaredoxin 5)	-1.41
29	CDC42EP5 (CDC42 effector protein 5)	0.39
30	CDC42EP5 (CDC42 effector protein 5)	0.64
31	CDC42EP5 (CDC42 effector protein 5)	0.48
32	CDC42EP5 (CDC42 effector protein 5)	0.41
33	GOLGA4 (golgin A4)	2.99 (active)
34	GOLGA4 (golgin A4)	2.88 (active)
35	GOLGA4 (golgin A4)	2.15
36	GOLGA4 (golgin A4)	2.57
37	LRRC20 (leucine rich repeat containing 20)	0.75
38	LRRC20 (leucine rich repeat containing 20)	0.85
39	LRRC20 (leucine rich repeat containing 20)	1.14
40	LRRC20 (leucine rich repeat containing 20)	1.31
41	ULBP1 (UL16 binding protein 1)	-1.88 (active)
42	ULBP1 (UL16 binding protein 1)	-1.43
43	ULBP1 (UL16 binding protein 1)	-1.71 (active)
44	ULBP1 (UL16 binding protein 1)	-1.23
45	KCTD20 (potassium channel tetramerization domain containing 20)	1.09
46	KCTD20 (potassium channel tetramerization domain containing 20)	1.23
47	KCTD20 (potassium channel tetramerization domain containing 20)	1.98
48	KCTD20 (potassium channel tetramerization domain containing 20)	2.29
49	ZNF600 (zinc finger protein 600)	0.01
50	ZNF600 (zinc finger protein 600)	1.36
51	ZNF600 (zinc finger protein 600)	-0.63
52	ZNF600 (zinc finger protein 600)	165 (active)
53	TIGD3 (tigger transposable element derived 3)	1.31
54	TIGD3 (tigger transposable element derived 3)	2.87 (active)
55	TIGD3 (tigger transposable element derived 3)	4.17 (active)
56	TIGD3 (tigger transposable element derived 3)	0.02
57	TDG (thymine DNA glycosylase)	-0.55
58	TDG (thymine DNA glycosylase)	-0.67
59	TDG (thymine DNA glycosylase)	0.43
60	TDG (thymine DNA glycosylase)	0.06
61	MELTF (melanotransferrin)	1.34
62	MELTF (melanotransferrin)	0.51
63	MELTF (melanotransferrin)	0.55
64	MELTF (melanotransferrin)	-0.13
65	MED21 (mediator complex subunit 21)	-1.77 (active)
66	MED21 (mediator complex subunit 21)	-1.57 (active)
67	MED21 (mediator complex subunit 21)	-1.87 (active)
68	MED21 (mediator complex subunit 21)	-1.66 (active)

The list goes on (9 carried over from the part before).
no.	Target gene	TNF reporter robust z-score
60	TDG (thymine DNA glycosylase)	0.06
61	MELTF (melanotransferrin)	1.34
62	MELTF (melanotransferrin)	0.51
63	MELTF (melanotransferrin)	0.55
64	MELTF (melanotransferrin)	-0.13
65	MED21 (mediator complex subunit 21)	-1.77 (active)
66	MED21 (mediator complex subunit 21)	-1.57 (active)
67	MED21 (mediator complex subunit 21)	-1.87 (active)
68	MED21 (mediator complex subunit 21)	-1.66 (active)
69	MALL (mal, T cell differentiation protein like)	1.14
70	MALL (mal, T cell differentiation protein like)	1.47
71	MALL (mal, T cell differentiation protein like)	1.1
72	MALL (mal, T cell differentiation protein like)	2.62
73	CRYBB1 (crystallin beta B1)	0.09
74	CRYBB1 (crystallin beta B1)	1.2
75	CRYBB1 (crystallin beta B1)	1.47
76	CRYBB1 (crystallin beta B1)	0.98
77	GLG1 (golgi glycoprotein 1)	-0.91
78	GLG1 (golgi glycoprotein 1)	0.49
79	GLG1 (golgi glycoprotein 1)	-1.38
80	GLG1 (golgi glycoprotein 1)	4.77 (active)
81	C14orf93 (chromosome 14 open reading frame 93)	1.41
82	C14orf93 (chromosome 14 open reading frame 93)	0.51
83	C14orf93 (chromosome 14 open reading frame 93)	-0.83
84	C14orf93 (chromosome 14 open reading frame 93)	-0.7
85	CORO7 (coronin 7)	-0.31
86	CORO7 (coronin 7)	-0.17
87	CORO7 (coronin 7)	-0.61
88	CORO7 (coronin 7)	1.63
89	CXCL11 (C-X-C motif chemokine ligand 11)	-0.86
90	CXCL11 (C-X-C motif chemokine ligand 11)	-1.14
91	CXCL11 (C-X-C motif chemokine ligand 11)	-1.41
92	CXCL11 (C-X-C motif chemokine ligand 11)	-1
93	RAB11FIP2 (RAB11 family interacting protein 2)	-0.59
94	RAB11FIP2 (RAB11 family interacting protein 2)	-0.84
95	RAB11FIP2 (RAB11 family interacting protein 2)	-0.95
96	MCCD1 (mitochondrial coiled-coil domain 1)	0.31
97	MCCD1 (mitochondrial coiled-coil domain 1)	0.97
98	MCCD1 (mitochondrial coiled-coil domain 1)	-0.04
99	MCCD1 (mitochondrial coiled-coil domain 1)	0.16
100	UBE2E1 (ubiquitin conjugating enzyme E2 E1)	-0.56
101	UBE2E1 (ubiquitin conjugating enzyme E2 E1)	0.01
102	UBE2E1 (ubiquitin conjugating enzyme E2 E1)	-0.84
103	UBE2E1 (ubiquitin conjugating enzyme E2 E1)	-0.16
104	C1orf53 (chromosome 1 open reading frame 53)	1.2
105	C1orf53 (chromosome 1 open reading frame 53)	0.45
106	C1orf53 (chromosome 1 open reading frame 53)	2.07
107	C1orf53 (chromosome 1 open reading frame 53)	0.56
108	RFC2 (replication factor C subunit 2)	-0.01
109	RFC2 (replication factor C subunit 2)	-0.14
110	RFC2 (replication factor C subunit 2)	-0.13
111	RFC2 (replication factor C subunit 2)	0.17
